{
  "sequences": {"note": "By UniProt entry, the sequences of proteins in these tests, tags left out. Residues count along the entry.", "UniProt P00747, 97-580 partner limits assumed, species assumed": "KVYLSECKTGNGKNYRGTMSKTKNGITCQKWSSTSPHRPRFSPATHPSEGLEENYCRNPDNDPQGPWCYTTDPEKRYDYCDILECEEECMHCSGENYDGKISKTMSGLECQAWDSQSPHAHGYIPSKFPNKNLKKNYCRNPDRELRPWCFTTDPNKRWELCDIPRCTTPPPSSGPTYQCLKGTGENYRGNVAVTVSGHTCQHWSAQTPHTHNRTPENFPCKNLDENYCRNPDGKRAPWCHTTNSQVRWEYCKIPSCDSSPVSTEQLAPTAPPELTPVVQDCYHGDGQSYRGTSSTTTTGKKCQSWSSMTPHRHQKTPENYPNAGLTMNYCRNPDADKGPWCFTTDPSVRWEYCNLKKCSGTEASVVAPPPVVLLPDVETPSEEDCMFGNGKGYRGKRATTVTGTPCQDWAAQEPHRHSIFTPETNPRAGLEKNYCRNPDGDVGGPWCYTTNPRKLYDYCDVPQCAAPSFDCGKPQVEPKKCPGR", "UniProt P00747, 581-810 limits assumed, species assumed": "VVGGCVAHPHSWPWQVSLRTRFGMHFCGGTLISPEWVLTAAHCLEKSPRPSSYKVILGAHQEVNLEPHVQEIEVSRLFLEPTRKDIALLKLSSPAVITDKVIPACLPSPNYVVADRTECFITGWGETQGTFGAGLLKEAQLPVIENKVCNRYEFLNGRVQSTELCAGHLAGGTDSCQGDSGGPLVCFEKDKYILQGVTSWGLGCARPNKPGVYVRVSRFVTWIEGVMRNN"},
  "source": "patent US7291673B2",
  "about": "“Conjugate addition reactions for the controlled delivery of pharmaceutically active compounds” (Eidgenossiche Technische Hochschule Zurich, priority 2000, dated 2007)",
  "molecular_target": "plasmin (Homo sapiens, UniProt P00747)",
  "assay": "Plasmin stability of peptides by analytical C18 HPLC",
  "type": "biochemical",
  "conditions": "37° C.; plasmin at 1/1000 the peptide concentration",
  "excerpt": "Analytical C18 HPLC (linear acetonitrile gradient over 0.1% TFA in water) was used to confirm the relative plasmin-stability of GCY-DLys-N-DArg-DCG. The following samples were run: plasmin; […]; plasmin+[…]; GCY-DLys-N-DArg-DCG; and plasmin+GCY-DLys-N-DArg-DCG.",
  "note": "Part of at least one peptide drawing is inferred or uncertain, most often the ends. Residues, ends and D or L forms follow the SMILES beside them.",
  "data": [
    {"smiles": "N=C(N)NCCC[C@H](NC(=O)[C@H](CC(N)=O)NC(=O)[C@H](CCCCN)NC(=O)[C@H](Cc1ccc(O)cc1)NC(=O)[C@H](CS)NC(=O)CN)C(=O)N[C@@H](CC(=O)O)C(=O)N[C@@H](CS)C(=O)NCC(=O)O", "note": "(H-GCYKNRDCG-OH; N-terminus and C-terminus assumed)", "values": [
      {"measurement": "degradation of peptide by plasmin", "value": "most of the GCYKNRDCG peptide was degraded in approximately one hour"}
    ]}
  ]
}
